System: larvae of the barnacle Balanus albicostatus
Experiment: Antifouling assay, barnacle larval settlement and mortality
Assay type: in vivo, Balanus albicostatus Pilsbry
Procedure: The antifouling activity of compounds 1–6 against larval of the barnacle Balanus albicostatus Pilsbry were determined according to the literature. EC50 was calculated as the concentration where 50% of the larval population was inhibited to settle as compared to the control while LC50 was calculated as the concentration where 50% of the larval population was dead. Experiments were repeated three times and carried out in triplicate.

Compound | therapeutic index LC50/EC50
Cc1cc(/C=C2\CCCN=C2C(=O)O)c2c(C)ccc(C(C)C)cc1-2 [compound 1, Muriceidine A] | 3.66
Cc1cc(C=O)c2c(C)ccc(C(C)C)cc1-2 [compound 6, 3-formyl guaiazulene] | 2.60

Reference: paper PMC5550455, “Unusual Inner-Salt Guaiazulene Alkaloids and bis-Sesquiterpene from the South China Sea Gorgonian Muriceides collaris” (Scientific Reports, 2017)
